Legend:
SB.mhdgc-1 [1] = experiment: viability at highest tested concentration (MAXR) relative to DMSO; higher = less cytotoxic; details: SB.mhdgc-1 (hereditary c.1380delA CDH1 gastric cancer)
How it was run: (§1)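 Compound in DMSO was pinned (23 nL) at 11 threefold-diluted concentrations into wells containing 500 patient-derived gastric cancer cells, hereditary or sporadic, in 5 μL medium per 1536 well. Cells were incubated for 48 h, then exposed to CellTiter-Glo for 30 min at room temperature. Luminescence was measured on a ViewLux. The values are viability normalised to DMSO, either at the highest concentration or as trapezoidal area under the curve.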

SB.msgc-1 [2] = experiment: as above; details: SB.msgc-1 (sporadic gastric cancer)
How it was run: as §1

SB.mhdgc-1 [3] = experiment: area under the dose-response curve of % viability (trapezoidal, 11 doses) (% viability x log10 concentration); higher = less cytotoxic; details: SB.mhdgc-1 (hereditary c.1380delA CDH1 gastric cancer)
How it was run: as §1

SB.msgc-1 [4] = experiment: as above; details: SB.msgc-1 (sporadic gastric cancer)
How it was run: as §1

**Q.** With `N[S+](=O)([O-])c1cc(C(=O)O)c(NCc2ccco2)cc1Cl` [Furosemide] (top concentration 46.0829 µM) as the molecule, how does the viability (SB.mhdgc-1 [1]) read?
**A.** 105%

**Q.** And the viability (SB.msgc-1 [2])?
**A.** 100%

**Q.** And the “area under the dose-response curve” value (SB.mhdgc-1 [3])?
**A.** 448

**Q.** And the “area under the dose-response curve” value (SB.msgc-1 [4])?
**A.** 478

**Q.** For `Cc1cnc(C(=O)NCCc2ccc([S+](=O)([O-])NC(=O)NC3CCCCC3)cc2)cn1` [Glipizide] (top concentration 46.0829 µM), which viability (SB.mhdgc-1 [1]) is on record?
**A.** 70.1%

**Q.** What about the viability (SB.msgc-1 [2]) of the same molecule?
**A.** 45.2%

**Q.** And the “area under the dose-response curve” value (SB.mhdgc-1 [3])?
**A.** 551

**Q.** What about the “area under the dose-response curve” value (SB.msgc-1 [4]) of the same molecule?
**A.** 379

**Q.** `O[C@@H]1C\C(=C/C(O)C1O)C(O)=O` (stereo not given in full) [Shikimic acid] (top concentration 46.0829 µM) was tested. Which viability (SB.mhdgc-1 [1]) did it give?
**A.** 118%

**Q.** What about the viability (SB.msgc-1 [2]) of the same molecule?
**A.** 111%

**Q.** What about the “area under the dose-response curve” value (SB.mhdgc-1 [3]) of the same molecule?
**A.** 636

**Q.** What about the “area under the dose-response curve” value (SB.msgc-1 [4]) of the same molecule?
**A.** 541

**Q.** For `Cc1cc(N[S+](=O)([O-])c2ccc(N)cc2)no1` [Sulfamethoxazole] (top concentration 46.0829 µM), which viability (SB.mhdgc-1 [1]) is on record?
**A.** 83.9%

**Q.** What about the viability (SB.msgc-1 [2]) of the same molecule?
**A.** 63.9%

**Q.** And the “area under the dose-response curve” value (SB.mhdgc-1 [3])?
**A.** 520

**Q.** What about the “area under the dose-response curve” value (SB.msgc-1 [4]) of the same molecule?
**A.** 473

**Q.** Which viability (SB.mhdgc-1 [1]) does the source give for `Nc1ccc([S+](N)(=O)[O-])cc1` [Sulfanilamide] (top concentration 46.0829 µM) here?
**A.** 105%

**Q.** And the viability (SB.msgc-1 [2])?
**A.** 118%

**Q.** And the “area under the dose-response curve” value (SB.mhdgc-1 [3])?
**A.** 579

**Q.** And the “area under the dose-response curve” value (SB.msgc-1 [4])?
**A.** 567

From the supplement of paper PMC5412046
